Data taken from the supplement of paper PMC6411743.
± gives the standard deviation of the averaged measurements. The list shows a part of the results.

Chains of the proteins cited; added tags and fusions are not shown. Lines headed by an entry give the natural chain unless they say otherwise; changes in a name come on top.
UniProt P61769, whole entry: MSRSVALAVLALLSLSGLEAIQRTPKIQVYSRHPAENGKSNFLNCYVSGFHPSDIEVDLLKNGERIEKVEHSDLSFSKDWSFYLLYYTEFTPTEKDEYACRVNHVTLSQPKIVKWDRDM
UniProt Q01469, whole entry: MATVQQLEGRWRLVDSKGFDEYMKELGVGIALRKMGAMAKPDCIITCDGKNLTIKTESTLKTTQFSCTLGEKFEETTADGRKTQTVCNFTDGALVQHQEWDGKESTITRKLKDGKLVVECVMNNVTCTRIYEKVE
UniProt Q460N5, whole entry: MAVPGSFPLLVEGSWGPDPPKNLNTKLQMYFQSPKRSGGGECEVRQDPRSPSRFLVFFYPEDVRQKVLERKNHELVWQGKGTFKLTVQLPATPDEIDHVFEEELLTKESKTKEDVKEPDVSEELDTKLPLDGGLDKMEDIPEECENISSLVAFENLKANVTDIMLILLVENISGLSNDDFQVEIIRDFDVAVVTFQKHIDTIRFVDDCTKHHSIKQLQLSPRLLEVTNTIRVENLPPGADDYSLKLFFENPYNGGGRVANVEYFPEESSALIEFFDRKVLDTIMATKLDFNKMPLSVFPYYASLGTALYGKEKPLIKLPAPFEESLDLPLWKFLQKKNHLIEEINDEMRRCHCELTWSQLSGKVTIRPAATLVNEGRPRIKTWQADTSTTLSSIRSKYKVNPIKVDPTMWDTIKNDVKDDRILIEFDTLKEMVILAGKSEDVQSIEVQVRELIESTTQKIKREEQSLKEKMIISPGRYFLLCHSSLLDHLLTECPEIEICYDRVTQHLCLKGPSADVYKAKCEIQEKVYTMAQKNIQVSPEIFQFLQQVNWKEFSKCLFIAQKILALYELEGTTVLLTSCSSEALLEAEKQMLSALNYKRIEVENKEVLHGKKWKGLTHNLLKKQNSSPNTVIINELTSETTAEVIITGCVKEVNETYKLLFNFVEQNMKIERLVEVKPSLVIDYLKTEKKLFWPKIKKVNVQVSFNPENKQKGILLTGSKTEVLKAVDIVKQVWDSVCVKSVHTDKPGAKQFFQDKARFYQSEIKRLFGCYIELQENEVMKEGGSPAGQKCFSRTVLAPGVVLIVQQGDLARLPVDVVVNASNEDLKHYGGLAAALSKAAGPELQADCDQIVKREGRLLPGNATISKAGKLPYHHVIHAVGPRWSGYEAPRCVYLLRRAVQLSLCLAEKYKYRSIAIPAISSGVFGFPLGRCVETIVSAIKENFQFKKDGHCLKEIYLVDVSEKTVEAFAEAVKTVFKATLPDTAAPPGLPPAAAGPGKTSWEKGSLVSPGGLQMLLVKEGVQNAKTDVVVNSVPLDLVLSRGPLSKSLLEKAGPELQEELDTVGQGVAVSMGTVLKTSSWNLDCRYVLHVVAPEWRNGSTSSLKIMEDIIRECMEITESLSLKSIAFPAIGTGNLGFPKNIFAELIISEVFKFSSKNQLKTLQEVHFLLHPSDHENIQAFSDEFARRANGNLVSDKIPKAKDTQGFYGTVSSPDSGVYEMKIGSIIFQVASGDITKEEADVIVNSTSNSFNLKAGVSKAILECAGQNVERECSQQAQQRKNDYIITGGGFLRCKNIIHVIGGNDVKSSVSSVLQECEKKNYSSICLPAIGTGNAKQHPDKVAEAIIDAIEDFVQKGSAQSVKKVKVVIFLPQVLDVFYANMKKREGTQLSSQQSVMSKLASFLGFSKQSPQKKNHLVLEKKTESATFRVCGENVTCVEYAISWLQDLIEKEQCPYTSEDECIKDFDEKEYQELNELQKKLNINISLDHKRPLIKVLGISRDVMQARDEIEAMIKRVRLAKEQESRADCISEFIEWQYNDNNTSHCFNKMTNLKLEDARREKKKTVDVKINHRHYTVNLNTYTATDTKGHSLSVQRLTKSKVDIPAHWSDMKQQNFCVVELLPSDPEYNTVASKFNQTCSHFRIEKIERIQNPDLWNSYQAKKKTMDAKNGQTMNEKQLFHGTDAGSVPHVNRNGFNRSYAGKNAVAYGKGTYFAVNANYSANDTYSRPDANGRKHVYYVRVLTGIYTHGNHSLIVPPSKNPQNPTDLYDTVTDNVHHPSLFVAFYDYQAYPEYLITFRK
UniProt Q9UBQ5, whole entry: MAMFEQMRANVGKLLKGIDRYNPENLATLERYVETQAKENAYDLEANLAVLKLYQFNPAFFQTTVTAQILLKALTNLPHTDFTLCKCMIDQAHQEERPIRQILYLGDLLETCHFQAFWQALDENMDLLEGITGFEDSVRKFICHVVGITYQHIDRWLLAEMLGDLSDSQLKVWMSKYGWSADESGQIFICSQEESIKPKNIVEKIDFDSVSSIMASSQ
UniProt Q96EV2: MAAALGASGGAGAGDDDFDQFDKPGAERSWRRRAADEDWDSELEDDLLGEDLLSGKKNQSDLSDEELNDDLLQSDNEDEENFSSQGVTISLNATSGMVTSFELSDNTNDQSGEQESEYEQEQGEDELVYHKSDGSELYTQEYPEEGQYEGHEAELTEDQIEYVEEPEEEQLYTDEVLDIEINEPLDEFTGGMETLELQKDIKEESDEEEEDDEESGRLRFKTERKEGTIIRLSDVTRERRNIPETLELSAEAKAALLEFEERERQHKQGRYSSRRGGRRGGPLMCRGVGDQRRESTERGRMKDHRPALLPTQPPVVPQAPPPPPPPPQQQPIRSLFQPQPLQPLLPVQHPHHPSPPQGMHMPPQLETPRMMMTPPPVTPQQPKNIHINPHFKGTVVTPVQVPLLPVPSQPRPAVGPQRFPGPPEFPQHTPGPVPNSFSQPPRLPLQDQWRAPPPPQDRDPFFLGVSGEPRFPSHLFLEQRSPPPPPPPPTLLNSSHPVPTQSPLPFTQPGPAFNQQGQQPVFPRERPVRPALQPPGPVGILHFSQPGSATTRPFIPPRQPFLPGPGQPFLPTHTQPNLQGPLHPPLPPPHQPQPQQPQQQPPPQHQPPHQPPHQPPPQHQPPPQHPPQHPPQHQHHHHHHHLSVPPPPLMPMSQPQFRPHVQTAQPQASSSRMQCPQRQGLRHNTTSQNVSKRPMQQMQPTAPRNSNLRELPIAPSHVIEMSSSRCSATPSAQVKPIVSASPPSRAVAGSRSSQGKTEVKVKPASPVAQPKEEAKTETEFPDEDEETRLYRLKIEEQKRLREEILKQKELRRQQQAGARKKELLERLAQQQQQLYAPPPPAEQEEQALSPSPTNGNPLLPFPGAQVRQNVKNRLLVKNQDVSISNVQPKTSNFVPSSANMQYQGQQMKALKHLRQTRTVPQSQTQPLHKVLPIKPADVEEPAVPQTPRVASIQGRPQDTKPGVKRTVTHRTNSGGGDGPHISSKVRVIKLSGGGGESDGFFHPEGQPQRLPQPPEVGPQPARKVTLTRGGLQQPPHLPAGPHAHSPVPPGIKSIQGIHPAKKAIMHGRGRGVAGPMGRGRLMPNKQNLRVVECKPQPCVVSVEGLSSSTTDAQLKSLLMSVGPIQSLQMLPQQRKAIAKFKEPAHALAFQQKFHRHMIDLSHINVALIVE
UniProt P67812: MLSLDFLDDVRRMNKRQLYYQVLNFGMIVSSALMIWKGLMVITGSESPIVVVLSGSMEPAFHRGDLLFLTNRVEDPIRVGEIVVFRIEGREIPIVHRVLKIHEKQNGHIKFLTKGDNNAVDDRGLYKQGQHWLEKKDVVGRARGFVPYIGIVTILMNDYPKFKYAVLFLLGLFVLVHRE
UniProt Q9H9Q4: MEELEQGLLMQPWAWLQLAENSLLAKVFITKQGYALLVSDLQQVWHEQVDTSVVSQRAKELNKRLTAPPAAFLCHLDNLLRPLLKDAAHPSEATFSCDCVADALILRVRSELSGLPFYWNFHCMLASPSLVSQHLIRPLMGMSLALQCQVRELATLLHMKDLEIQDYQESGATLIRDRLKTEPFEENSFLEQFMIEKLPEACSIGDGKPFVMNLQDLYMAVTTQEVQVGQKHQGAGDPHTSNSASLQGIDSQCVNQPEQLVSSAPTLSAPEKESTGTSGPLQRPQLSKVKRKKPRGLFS
UniProt P49916: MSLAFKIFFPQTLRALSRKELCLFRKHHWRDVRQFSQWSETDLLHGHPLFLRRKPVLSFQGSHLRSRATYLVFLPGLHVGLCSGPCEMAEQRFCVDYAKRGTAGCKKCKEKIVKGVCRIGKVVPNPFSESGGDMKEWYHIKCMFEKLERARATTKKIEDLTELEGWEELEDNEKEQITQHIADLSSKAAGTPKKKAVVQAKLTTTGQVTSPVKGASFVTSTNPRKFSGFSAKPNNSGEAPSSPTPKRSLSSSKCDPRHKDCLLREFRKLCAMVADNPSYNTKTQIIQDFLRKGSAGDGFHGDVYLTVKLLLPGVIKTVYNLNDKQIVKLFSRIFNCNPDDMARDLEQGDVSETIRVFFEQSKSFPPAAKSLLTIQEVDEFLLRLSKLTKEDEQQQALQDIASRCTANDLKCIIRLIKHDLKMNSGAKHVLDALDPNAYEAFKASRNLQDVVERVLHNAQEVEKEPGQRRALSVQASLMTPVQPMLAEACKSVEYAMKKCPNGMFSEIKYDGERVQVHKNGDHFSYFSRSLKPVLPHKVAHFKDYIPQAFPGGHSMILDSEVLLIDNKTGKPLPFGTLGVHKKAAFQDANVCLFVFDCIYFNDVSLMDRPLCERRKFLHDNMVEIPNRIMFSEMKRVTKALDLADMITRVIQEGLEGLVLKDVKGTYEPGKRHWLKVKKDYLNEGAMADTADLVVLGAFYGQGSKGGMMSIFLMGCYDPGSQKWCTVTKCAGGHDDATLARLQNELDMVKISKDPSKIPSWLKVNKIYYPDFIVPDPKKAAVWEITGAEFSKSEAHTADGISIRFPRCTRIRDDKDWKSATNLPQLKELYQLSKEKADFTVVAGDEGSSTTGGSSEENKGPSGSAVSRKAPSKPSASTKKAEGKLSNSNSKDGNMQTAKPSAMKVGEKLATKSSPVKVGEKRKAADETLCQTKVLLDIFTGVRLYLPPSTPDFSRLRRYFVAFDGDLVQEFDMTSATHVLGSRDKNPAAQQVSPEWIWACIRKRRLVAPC
UniProt Q969X6: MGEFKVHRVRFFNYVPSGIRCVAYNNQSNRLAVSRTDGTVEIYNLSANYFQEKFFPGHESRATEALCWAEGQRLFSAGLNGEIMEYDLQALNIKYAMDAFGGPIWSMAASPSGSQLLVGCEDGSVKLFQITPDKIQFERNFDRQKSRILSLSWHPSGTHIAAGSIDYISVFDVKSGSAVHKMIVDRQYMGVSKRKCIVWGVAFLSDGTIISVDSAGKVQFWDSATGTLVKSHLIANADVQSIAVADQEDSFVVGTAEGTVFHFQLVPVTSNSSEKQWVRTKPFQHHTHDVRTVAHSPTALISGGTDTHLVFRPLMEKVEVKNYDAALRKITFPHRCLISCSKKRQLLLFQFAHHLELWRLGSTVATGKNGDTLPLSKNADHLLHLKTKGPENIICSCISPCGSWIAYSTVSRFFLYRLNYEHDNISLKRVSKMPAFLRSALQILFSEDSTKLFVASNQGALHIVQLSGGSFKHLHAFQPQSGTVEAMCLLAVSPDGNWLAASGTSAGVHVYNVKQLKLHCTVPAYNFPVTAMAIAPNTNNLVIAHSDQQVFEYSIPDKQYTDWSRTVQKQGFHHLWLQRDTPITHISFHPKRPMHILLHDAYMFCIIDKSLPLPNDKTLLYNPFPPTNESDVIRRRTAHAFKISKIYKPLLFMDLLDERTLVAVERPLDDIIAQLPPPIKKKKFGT
UniProt Q9BZG8: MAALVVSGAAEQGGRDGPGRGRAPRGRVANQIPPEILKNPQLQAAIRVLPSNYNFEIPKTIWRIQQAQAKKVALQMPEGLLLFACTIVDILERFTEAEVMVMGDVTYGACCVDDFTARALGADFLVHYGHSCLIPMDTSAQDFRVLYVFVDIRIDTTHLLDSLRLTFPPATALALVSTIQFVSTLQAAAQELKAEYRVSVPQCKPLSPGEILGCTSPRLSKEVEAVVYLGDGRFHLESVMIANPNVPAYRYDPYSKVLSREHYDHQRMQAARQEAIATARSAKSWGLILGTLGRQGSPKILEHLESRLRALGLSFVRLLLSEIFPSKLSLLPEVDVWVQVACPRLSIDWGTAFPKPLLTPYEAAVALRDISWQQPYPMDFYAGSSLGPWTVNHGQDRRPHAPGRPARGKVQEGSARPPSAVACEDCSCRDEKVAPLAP
UniProt Q9Y3E5: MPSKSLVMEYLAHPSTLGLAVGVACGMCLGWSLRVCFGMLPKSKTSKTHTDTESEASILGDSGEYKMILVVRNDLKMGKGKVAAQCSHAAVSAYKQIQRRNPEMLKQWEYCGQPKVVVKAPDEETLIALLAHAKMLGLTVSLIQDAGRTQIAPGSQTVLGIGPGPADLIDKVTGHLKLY
UniProt P35236: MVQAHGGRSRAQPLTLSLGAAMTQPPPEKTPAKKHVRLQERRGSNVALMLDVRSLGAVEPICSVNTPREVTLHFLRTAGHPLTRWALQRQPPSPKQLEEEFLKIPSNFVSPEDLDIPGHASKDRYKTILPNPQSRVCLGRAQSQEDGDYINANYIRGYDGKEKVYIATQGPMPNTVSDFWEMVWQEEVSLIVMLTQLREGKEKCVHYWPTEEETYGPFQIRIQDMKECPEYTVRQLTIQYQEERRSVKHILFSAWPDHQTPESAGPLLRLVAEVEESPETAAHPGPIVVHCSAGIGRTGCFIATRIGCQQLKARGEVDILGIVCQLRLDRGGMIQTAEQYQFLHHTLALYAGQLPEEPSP

Compound: Nc1nc2c(ncn2[C@@H]2O[C@H](COP(=O)(O)OP(=O)(O)OP(=O)(O)O)[C@@H](O)[C@H]2O)c(=O)[nH]1 [guanosine triphosphate]
Test: NP40-soluble protein abundance relative to vehicle (solubility fold change) (ratio); higher = more soluble protein in presence of GTP
Outline: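 Across three independent experiments, values are fold changes against the detergent-processed vehicle for each replicate, based on vsn-normalised intensities. The samples were Jurkat crude lysate treated with eight concentrations (0.1 to 10 mM) for 10 min at room temperature and then 3 min at 37 °C. Lysate was solubilised with 0.8% NP40 and benzonase, ultracentrifuged, and the supernatant analysed by TMT-labelled LC-MS/MS.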

Row | Target | NP40-soluble protein abundance (concentration: 0.1mM) | NP40-soluble protein abundance (concentration: 0.5mM) | NP40-soluble protein abundance (concentration: 1mM) | NP40-soluble protein abundance (concentration: 2mM) | NP40-soluble protein abundance (concentration: 4mM) | NP40-soluble protein abundance (concentration: 6mM) | NP40-soluble protein abundance (concentration: 8mM) | NP40-soluble protein abundance (concentration: 10mM)
1 | H0YLF3 and related entries (UniProt P61769) | 0.88 ± 0.033 | 0.904 ± 0.031 | 0.915 ± 0.03 | 0.898 ± 0.034 | 0.894 ± 0.064 | 0.878 ± 0.048 | 0.87 ± 0.074 | 0.928 ± 0.04
2 | I6L8B7 and related entries (UniProt Q01469) | 0.863 ± 0.057 | 0.927 ± 0.061 | 0.834 ± 0.071 | 0.821 ± 0.065 | 0.789 ± 0.078 | 0.82 ± 0.06 | 0.795 ± 0.088 | 0.811 ± 0.085
3 | H7C5R8 and related entries (UniProt Q460N5) | 1.03 ± 0.015 | 1.01 ± 0.024 | 1.033 ± 0.0096 | 1.01 ± 0.054 | 0.976 ± 0.031 | 0.977 ± 0.013 | 0.949 ± 0.014 | 0.947 ± 0.027
4 | K7ERF1 and related entries (UniProt Q9UBQ5) | 0.991 ± 0.042 | 0.998 ± 0.068 | 1.01 ± 0.091 | 1.06 ± 0.1 | 1.16 ± 0.2 | 1.28 ± 0.18 | 1.34 ± 0.21 | 1.53 ± 0.28
5 | H0Y3K4 and related entries (UniProt Q96EV2) | 0.975 ± 0.064 | 1 ± 0.039 | 1.01 ± 0.025 | 0.989 ± 0.083 | 1.03 ± 0.08 | 1.03 ± 0.035 | 1.08 ± 0.06 | 1.07 ± 0.11
6 | I3L182 and related entries (UniProt Q9UQ35) | 1.03 ± 0.029 | 1.07 ± 0.036 | 1.179 ± 0.0078 | 1.13 ± 0.069 | 1.04 ± 0.11 | 1.03 ± 0.1 | 1.07 ± 0.17 | 1.05 ± 0.21
7 | H0YKT4 and related entries (UniProt P67812) | 1.01 ± 0.036 | 1.04 ± 0.046 | 0.909 ± 0.038 | 0.923 ± 0.04 | 0.91 ± 0.033 | 0.924 ± 0.028 | 0.899 ± 0.018 | 0.861 ± 0.059
8 | H7C0G7 and related entries (UniProt Q9H9Q4) | 1.01 ± 0.059 | 1.11 ± 0.05 | 1.11 ± 0.09 | 1.15 ± 0.066 | 1.12 ± 0.16 | 1.07 ± 0.13 | 1.14 ± 0.16 | 1.19 ± 0.25
9 | J3KP06 and related entries (UniProt Q8WWI1) | 1.249 ± 0.00018 | 1.3 ± 0.013 | 1.379 ± 0.011 | 1.42 ± 0.04 | 1.57 ± 0.048 | 1.53 ± 0.016 | 1.66 ± 0.091 | 1.71 ± 0.046
10 | K7EQB6 and related entries (UniProt P49916) | 1.03 ± 0.034 | 1.06 ± 0.047 | 1.04 ± 0.059 | 1.08 ± 0.041 | 1.15 ± 0.065 | 1.15 ± 0.049 | 1.18 ± 0.049 | 1.17 ± 0.04
11 | I3L254 and related entries (UniProt Q01664) | 0.934 ± 0.12 | 0.929 ± 0.098 | 1.06 ± 0.12 | 0.982 ± 0.045 | 0.915 ± 0.096 | 0.927 ± 0.055 | 0.894 ± 0.023 | 0.959 ± 0.13
12 | H3BSH7 and related entries (UniProt Q969X6) | 1.03 ± 0.14 | 1.09 ± 0.11 | 1.03 ± 0.095 | 1.12 ± 0.22 | 1.28 ± 0.24 | 1.33 ± 0.22 | 1.32 ± 0.18 | 1.44 ± 0.31
13 | I3L3P0 and related entries (UniProt Q99640) | 1.07 ± 0.041 | 1.03 ± 0.032 | 1.08 ± 0.049 | 1.02 ± 0.051 | 0.953 ± 0.082 | 0.973 ± 0.032 | 1.03 ± 0.023 | 0.957 ± 0.045
14 | H7C4C8 and related entries (UniProt P50990) | 0.986 ± 0.01 | 1.05 ± 0.061 | 1.07 ± 0.1 | 1.06 ± 0.15 | 1.05 ± 0.17 | 1.06 ± 0.17 | 1.05 ± 0.18 | 1 ± 0.19
15 | I3L1H5 and related entries (UniProt Q9BZG8) | 0.986 ± 0.14 | 0.954 ± 0.076 | 0.947 ± 0.058 | 0.955 ± 0.089 | 0.908 ± 0.065 | 0.877 ± 0.14 | 0.933 ± 0.051 | 0.902 ± 0.056
16 | H0YM51 and related entries (UniProt Q6P4E1) | 0.958 ± 0.2 | 0.898 ± 0.14 | 1.08 ± 0.21 | 1.01 ± 0.16 | 0.994 ± 0.2 | 0.955 ± 0.17 | 0.991 ± 0.24 | 1.16 ± 0.22
17 | H3BM14 and related entries (UniProt Q9Y5A7) | 1.02 ± 0.03 | 1.01 ± 0.03 | 0.986 ± 0.027 | 0.96 ± 0.032 | 0.971 ± 0.074 | 0.965 ± 0.057 | 0.95 ± 0.067 | 0.938 ± 0.063
18 | H7C127 and related entries (UniProt Q9H0E9) | 1.01 ± 0.032 | 1.01 ± 0.052 | 1.06 ± 0.07 | 1.04 ± 0.049 | 1.05 ± 0.04 | 1.08 ± 0.049 | 1.08 ± 0.04 | 1.11 ± 0.035
19 | J3KQ48 and related entries (UniProt Q9Y3E5) | 0.982 ± 0.082 | 0.957 ± 0.059 | 0.947 ± 0.085 | 0.941 ± 0.049 | 0.991 ± 0.12 | 0.915 ± 0.075 | 0.908 ± 0.07 | 0.966 ± 0.12
20 | J3KR55 and related entries (UniProt P35236) | 1 ± 0.052 | 1.05 ± 0.03 | 0.974 ± 0.044 | 1 ± 0.041 | 0.949 ± 0.056 | 0.955 ± 0.036 | 0.951 ± 0.053 | 0.979 ± 0.084

Single records (already shown). Values in the order: NP40-soluble protein abundance (concentration: 0.1mM) | NP40-soluble protein abundance (concentration: 0.5mM) | NP40-soluble protein abundance (concentration: 1mM) | NP40-soluble protein abundance (concentration: 2mM) | NP40-soluble protein abundance (concentration: 4mM) | NP40-soluble protein abundance (concentration: 6mM) | NP40-soluble protein abundance (concentration: 8mM) | NP40-soluble protein abundance (concentration: 10mM)
I3L254 and related entries (UniProt Q01664) in the list: 0.934 ± 0.12 | 0.929 ± 0.098 | 1.06 ± 0.12 | 0.982 ± 0.045 | 0.915 ± 0.096 | 0.927 ± 0.055 | 0.894 ± 0.023 | 0.959 ± 0.13
K7ERF1 and related entries (UniProt Q9UBQ5) in the list: 0.991 ± 0.042 | 0.998 ± 0.068 | 1.01 ± 0.091 | 1.06 ± 0.1 | 1.16 ± 0.2 | 1.28 ± 0.18 | 1.34 ± 0.21 | 1.53 ± 0.28
